Source: ChEMBL document CHEMBL3988442, “University of Dundee, Small-Polar-MMV Screening Library” (2021).

The chains behind the UniProt entries cited, without tags or fusion partners.
UniProt P9WFT3, whole entry: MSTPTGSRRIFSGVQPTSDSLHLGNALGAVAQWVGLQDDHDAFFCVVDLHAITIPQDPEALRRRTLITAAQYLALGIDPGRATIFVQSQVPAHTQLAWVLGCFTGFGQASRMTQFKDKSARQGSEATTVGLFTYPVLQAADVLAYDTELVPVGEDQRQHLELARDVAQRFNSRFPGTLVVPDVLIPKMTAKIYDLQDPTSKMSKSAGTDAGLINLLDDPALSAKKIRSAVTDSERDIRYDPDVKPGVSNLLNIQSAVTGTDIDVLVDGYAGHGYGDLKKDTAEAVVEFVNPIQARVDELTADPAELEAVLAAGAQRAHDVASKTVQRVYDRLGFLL

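Enzyme assay of tryptophanyl-tRNA synthetase; the read-out is not stated. Target: Tryptophan-tRNA ligase, Mycobacterium tuberculosis (UniProt P9WFT3). Tested at 10 µM. Higher most likely means stronger inhibition; the record gives no direction and few retests gave an IC50. Size under these conditions: about 65,000 compounds, about 64 of them at 50% or above in at least one test.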

Values are the deposited “Percent Effect”, in %. The controls that fix the scale are not given in the record; negative values are as filed. The compounds are a random part of those screened.

| # | compound | Percent Effect |
|---|---|---|
| 1 | `NC(=O)c1cnc(-c2ccccc2)nc1CCNC(=O)CN1CCCC1` | -3.872% |
| 2 | `CCN(C)C[C@@H]1CN(Cc2cccc(Cl)c2)C[C@@H]1CO` | -4.776% |
| 3 | `Cc1cc(N(C)C)nc(C2(C)CCNCC2)n1` | 9.715% |
| 4 | `CN(Cc1nc(-c2cccnc2)no1)C(=O)c1c2c(nn1C)CCCC2` | 3.056% |
| 5 | `O=C(CCc1cccnc1)N(Cc1ccsc1)CC1CCCO1` (configuration not stated) | 0.0774% |
| 6 | `O=C(c1cn(CCN2CCCCC2)nn1)N1CCSCC1` | -1.001% |
| 7 | `Cc1cccc(-n2cc(C(=O)N3CCn4c(C)nnc4C3)nn2)c1` | -2.056% |
| 8 | `Cn1cc(CNCCNc2ncc(Cl)cc2Cl)cn1` | 5.828% |
| 9 | `COC(=O)C(C)CN(Cc1ccccc1)C(=O)CN1CCCNC1=O` (configuration not stated) | 3.431% |
| 10 | `CC(C)(C)C(=O)NCc1nccn1CCc1ccccc1` | 7.968% |
| 11 | `COc1ccc(C(=O)N2CCOC3(CNCCOC3)C2)c(OC)n1` (configuration not stated) | 2.391% |
| 12 | `CC(CCc1ccccc1F)C(=O)NS(C)(=O)=O` (configuration not stated) | -0.2337% |
| 13 | `c1ccc(CN2C[C@@H]3OCCN(c4ncccn4)[C@@H]3C2)nc1` | 2.996% |
| 14 | `CC1c2ncc(CN3CCN(C)CC3)n2CCN1Cc1ccsc1` (configuration not stated) | -0.4537% |
| 15 | `CN1C(=O)CCN(C(=O)C2CCCCC2)c2ccccc21` | 13.54% |
| 16 | `CC(C)c1ccc(CN[C@@H]2COC[C@H]2c2ccc(F)cc2)cc1` | -8.104% |
| 17 | `Cc1nn(C)c(C)c1OCC(=O)NCc1cccc(CO)c1` | 0.6369% |
| 18 | `CC(C)Cc1noc(CN2CCC(C(=O)NCC3CCCO3)CC2)n1` (configuration not stated) | -3.767% |
| 19 | `O=C(COCC(F)(F)C(F)F)N1CCC2(CCCN(CCO)C2=O)C1` (configuration not stated) | -2.477% |
| 20 | `CC(C)(C)N1CC(c2ncc(-c3ccc4c(c3)OCCO4)[nH]2)CC1=O` (configuration not stated) | -3.96% |
| 21 | `Cc1nc(NC(=O)NC2CC(=O)N(C)C2)nn1C` (configuration not stated) | 3.549% |
| 22 | `CCC(C)N(Cc1ccncc1)Cc1cccc(Cn2cccn2)c1` (configuration not stated) | -5.925% |
| 23 | `CC(C)OCc1noc(C2CCCOC2)n1` (configuration not stated) | -1.732% |
| 24 | `CN(Cc1ccc(Cl)s1)C(=O)c1ccccc1OCC(N)=O` | 7.351% |
| 25 | `CN1CCC(N(Cc2ccco2)S(=O)(=O)c2ccc(Br)cc2Cl)CC1` | 0.5038% |
| 26 | `O=C(NCC(F)(F)F)C1CSCN1S(=O)(=O)c1ccc(F)cc1Cl` (configuration not stated) | -4.217% |
| 27 | `CCn1cnnc1CNC(=O)N1CCC(C)CC1` | 8.051% |
| 28 | `COc1nccnc1-c1cc(NC2CCNCC2)nc2[nH]ccc12` | 2.855% |
| 29 | `c1cn2c(n1)CN(CC1CC1)CC(CN1CCOCC1)C2` (configuration not stated) | 7.383% |
| 30 | `CN(CCc1ccccc1)c1cnn(C)c(=O)c1Br` | 0.9181% |
| 31 | `CN(C)CCn1c2c(ccc1=O)CCN(C(=O)c1ccoc1)CC2` | -8.439% |
| 32 | `CN(Cc1ccco1)C(=O)Nc1cccnc1N1CCCC1` | -5.48% |
| 33 | `Cc1cccc(N2CCN(C(=O)CN3CCC(C(N)=O)CC3)CC2)c1` | -1.751% |
| 34 | `O=C(c1ccnnc1)N1CCN2C[C@H](OCc3ccccn3)C[C@H]2C1` | -2.658% |
| 35 | `Cc1cccc2cc(CN3CCC(N4CCCC4)CC3)c(=O)[nH]c12` | -3.618% |
| 36 | `Cc1noc(C)c1C(=O)NCCSCc1cccs1` | 10.16% |
| 37 | `CC(C)CCN(C)C(=O)c1cnc2c(cnn2CC(C)C)c1` | 0.4938% |
| 38 | `Cc1cc(CC(C)Nc2ncnc3cccc(F)c23)[nH]n1` (configuration not stated) | -2.938% |
| 39 | `CC(C)=CCN1CCN(C(=O)c2snnc2C)[C@H]2CS(=O)(=O)C[C@H]21` | -2.632% |
| 40 | `CC1Oc2c(cccc2C(=O)N2CCN(CC(C)(C)O)CC2)NC1=O` (configuration not stated) | 0.4045% |
| 41 | `CCC(C)NS(=O)(=O)Cc1cccc(NC(=O)c2ccc[nH]2)c1` (configuration not stated) | -5.462% |
| 42 | `COC(=O)CCC(=O)N1CCc2nc(C(=O)N3CCCCC3)sc2CC1` | -3.776% |
| 43 | `COc1cccc(CC2CN(C(=O)c3ccnn3C)CCO2)c1` (configuration not stated) | 0.2212% |
| 44 | `O=C(CN1CCCC1=O)NCc1cccnc1Oc1ccc(F)c(F)c1` | -1.204% |
| 45 | `Cc1nc(C)c(CN2CCC(N(C)Cc3noc(C4CC4)n3)C2)s1` (configuration not stated) | 8.702% |
| 46 | `O=C(c1cscn1)N1CCC(Cn2cc(-c3ccsc3)nn2)CC1` | 1.671% |
| 47 | `CC(C)N1CCc2ncn(C)c2C1C(=O)N1CCOCC1` (configuration not stated) | 3.85% |
| 48 | `Cc1noc(C)c1CN(C)C(=O)NC(C)c1cccs1` (configuration not stated) | 3.767% |
| 49 | `CC(NCCCN1CCCC1=O)c1cc(Br)ccc1F` (configuration not stated) | -1.713% |
| 50 | `O=C(CC1CCCC1)N1CCCC1c1nc(O)cc(-c2ccccn2)n1` (configuration not stated) | 2.09% |
| 51 | `CCCc1n[nH]c(C2CN(C(=O)c3cccc4cn[nH]c34)CCO2)n1` (configuration not stated) | -6.383% |
| 52 | `Cc1ccc(C2CCCN(S(=O)(=O)N3CCOCC3)C2)nc1` (configuration not stated) | -7.422% |
| 53 | `CC(C)NC(=O)N1CCN(C(=O)C2CCOCC2)CC2(CNC(=O)C2)C1` (configuration not stated) | 0.4149% |
| 54 | `O=C1CC[C@]2(CC[C@@H](NC(=O)NCc3ccccc3)CC2)N1` | 1.453% |

4 of the entries, repeated:

With COc1ccc(C(=O)N2CCOC3(CNCCOC3)C2)c(OC)n1 (configuration not stated) the screen gave 2.391%.
With Cc1cccc2cc(CN3CCC(N4CCCC4)CC3)c(=O)[nH]c12 the screen gave -3.618%.
With CCn1cnnc1CNC(=O)N1CCC(C)CC1 the screen gave 8.051%.
With CC(C)Cc1noc(CN2CCC(C(=O)NCC3CCCO3)CC2)n1 (configuration not stated) the screen gave -3.767%.